Experimental data: paper PMC4560775
Results are given in words; binding and its absence hold for the method and conditions named. In cells and extracts the contact can be indirect. Some binding calls cover weakened binding; strength is not graded here. Tags and fused reporters may be left off the sequences shown.

By UniProt entry, the sequences of proteins in these tests, tags left out. Residues count along the entry.
UniProt P29317, residues 24-976: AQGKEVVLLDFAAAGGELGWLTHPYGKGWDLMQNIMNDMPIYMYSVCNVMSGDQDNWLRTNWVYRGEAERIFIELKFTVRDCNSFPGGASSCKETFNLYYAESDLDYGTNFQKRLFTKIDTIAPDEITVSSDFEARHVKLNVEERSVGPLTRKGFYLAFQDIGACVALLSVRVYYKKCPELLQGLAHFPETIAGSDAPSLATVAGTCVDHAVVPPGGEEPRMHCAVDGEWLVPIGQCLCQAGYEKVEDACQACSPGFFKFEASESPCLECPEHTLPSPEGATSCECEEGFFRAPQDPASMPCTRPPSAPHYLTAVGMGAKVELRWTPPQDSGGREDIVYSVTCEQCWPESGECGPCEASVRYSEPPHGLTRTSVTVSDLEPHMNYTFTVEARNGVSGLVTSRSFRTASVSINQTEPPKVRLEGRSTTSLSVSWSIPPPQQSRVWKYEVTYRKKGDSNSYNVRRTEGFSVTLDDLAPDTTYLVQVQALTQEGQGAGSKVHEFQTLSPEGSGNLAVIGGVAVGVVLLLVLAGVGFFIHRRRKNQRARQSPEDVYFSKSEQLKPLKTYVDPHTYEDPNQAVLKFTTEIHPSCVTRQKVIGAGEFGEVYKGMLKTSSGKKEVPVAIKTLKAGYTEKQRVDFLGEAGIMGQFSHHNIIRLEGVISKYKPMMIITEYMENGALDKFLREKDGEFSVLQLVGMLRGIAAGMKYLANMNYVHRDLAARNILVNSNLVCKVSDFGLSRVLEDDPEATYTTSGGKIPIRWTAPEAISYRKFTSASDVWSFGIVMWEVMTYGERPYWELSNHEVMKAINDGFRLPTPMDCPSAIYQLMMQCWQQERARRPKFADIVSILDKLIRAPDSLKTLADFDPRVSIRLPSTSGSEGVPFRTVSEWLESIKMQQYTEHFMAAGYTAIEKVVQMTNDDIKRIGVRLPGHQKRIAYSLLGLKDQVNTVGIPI

Target: EphA2-mCitrine (human) (UniProt P29317)
Assay: FRET or BRET; FLIM-FRET in living Cos-7 cells; donor EphA2-mCitrine, acceptor mCherry-PTP1B D/A; no ligand; without or with co-expressed bfp-Rab11a

binding: binds
B1: mCherry-tagged PTP1B-D181A (enzyme, UniProt P18031 1-435)
chain: MEMEKEFEQIDKSGSWAAIYQDIRHEASDFPCRVAKLPKNKNRNRYRDVSPFDHSRIKLHQEDNDYINASLIKMEEAQRSYILTQGPLPNTCGHFWEMVWEQKSRGVVMLNRVMEKGSLKCAQYWPQKEEKEMIFEDTNLKLTLISEDIKSYYTVRQLELENLTTQETREILHFHYTTWPAFGVPESPASFLNFLFKVRESGSLSPEHGPVVVHCSAGIGRSGTFCLADTCLLLMDKRKDPSSVDIKKVLLEMRKFRMGLIQTADQLRFSYLAVIEGAKFIMGDSSVQDQWKELSHEDLEPPPEHIPPPPRPPKRILEPHNGKCREFFPNHQWVKEETQEDKDCPIKEEKGSPLNAAPYGIESMSQDTEVRSRVVGGSLRGAQAASPAKGEPSLPEKDEDHALSYWKPFLVNMCVATVLTAGAYLCYRFLFNSNT
